Measured values published in US20230331868A1.

How the values were obtained:
[1] = target: bovine submaxillary mucin (bovine); assay: ELISA on BSM-coated wells
[2] = target: bovine submaxillary mucin (bovine); assay: ELISA on BSM-coated wells; binding not periodate sensitive

B1: Humanized 3F1 VL1,VH1 (antibody, V domains shown)
VH: QVQLVQSGAEVKKPGASVKVSCKASGYTFTDHAIHWVRQAPGQGLEWMGYISPGNGDIKYNEKFKDRVTMTADKSSSTAYMQLRSLRSDDTAVYFCKRSLLALDYWGQGTLVTVSS
VL: DIQMTQSPSSLSASVGDRVTITCKASQDVGTNIAWYQQKPGKAPKVLIYSASTRHTGVPSRFSGSGSGTDFTLTISSLQPEDFATYFCQQYSSFPLTFGQGTKVEIK
B1 was tested, and the binding [1] was “binds”.

B2: Humanized 2G12-2B2 VL2,VH2 (antibody, V domains shown)
VH: QVQLVQSGAEVKKPGASVKISCKASGYTFTDHAIHWVRQAPGQGLEWIGYFSPGNDDIKYNEKFRGRVTLTADKSSSTAYMELRSLRSDDTAVYFCKRSLSTPYWGQGTLVTVSS
VL: DIVMTQSPDSLAVSLGERVTMSCKSSQSLLNRGNHKNYLTWYQQKPGQPPKLLIYWASTRESGVPDRFSGSGSGTDFTLTISSLQAEDVAVYYCQNDYTYPYTFGQGTKVEIK
For B2, the binding [1] was “binds”.

B3: Humanized 5G2-1B3 VL1,VH2 (antibody, V domains shown)
VH: QVQLVQSGAEVKKPGASVKISCKASGYTFTDHAIHWVRQAPGQGLEWIGYFSPGNDDIKYNEKFKVRATLTADKSSSTAYMELRSLRSDDTAVYFCKRSYYGDWGQGTLVTVSS
VL: DIQMTQSPSSLSASVGDRVTITCRASENIYSHLAWYQQKPGKAPKLLVYGATNLASGVPSRFSGSGSGTQFTLTISSLQPEDFATYYCQHFWGAPFTFGQGTKVEIK
With B3 the binding [2] was “binds”.

These are yes or no findings as the source states them, for the method shown. A result given as binding can be weak or reduced; the word gives no strength.
